Measurements published in patent publication US7781419B2, “Use of bisphosphonates for otosclerosis” (priority 2003, dated 2010).
For at least one compound, name, drawing or mass did not settle the structure.

What was measured:
[1] = system: otosclerosis patients with dizziness; assay: Example 4: intravenous zolendronic acid, dizziness patients; type: in vivo, human; conditions: 4 mg per injection, after 4 to 12 months, 3 patients
Protocol: Patients were administered the bisphosphonate to see if dizziness could disappear or if associated symptoms of hearing loss or ear noise could be improved.
In a fourth study, the following populations having the symptom stated were administered a zolendronic acid injection in 4 mg per injection no more frequently than every three months. […] Some patients were also administered etidronate.
Dizziness after 4 to 12 Months

[2] = system: otosclerosis patient with Meniere's syndrome; assay: Example 4: intravenous zolendronic acid, Meniere's syndrome patient; type: in vivo, human; conditions: 4 mg per injection, no more frequently than every three months, after six months, 1 patient

For `O=P(O)(O)C(O)(Cn1ccnc1)P(=O)(O)O` [zolendronic acid], which “number of patients whose dizziness disappeared” value [1] is on record?
The value was “Two”.

And the “patients with reduced dizziness, no problem in daily living” value [1]?
The value was “the third patient”.

And the dizziness outcome [2]?
Its dizziness outcome is “improvement in dizziness”.

What about the ear noise outcome [2] of the same compound?
The ear noise outcome was “the same”.

And the hearing outcome [2]?
The hearing outcome was “the same”.
